Experimental data published in article PMC3342315.
Results are given in words; binding and its absence hold for the method and conditions named. Binding seen in cells or lysates may run through a third protein. Some binding calls cover weakened binding; strength is not graded here. Sequences can lack the tags named with a protein.

Chains of the proteins cited; added tags and fusions are not shown.
UniProt P50221: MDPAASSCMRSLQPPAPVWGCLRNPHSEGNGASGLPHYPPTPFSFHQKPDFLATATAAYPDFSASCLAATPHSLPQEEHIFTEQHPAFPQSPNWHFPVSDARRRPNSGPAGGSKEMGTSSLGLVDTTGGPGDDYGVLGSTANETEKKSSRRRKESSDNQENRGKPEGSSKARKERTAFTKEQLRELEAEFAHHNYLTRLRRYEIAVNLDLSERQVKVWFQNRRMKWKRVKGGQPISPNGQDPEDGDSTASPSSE

Target: T1, PBX1-V5 (UniProt P40424)
T1 sequence: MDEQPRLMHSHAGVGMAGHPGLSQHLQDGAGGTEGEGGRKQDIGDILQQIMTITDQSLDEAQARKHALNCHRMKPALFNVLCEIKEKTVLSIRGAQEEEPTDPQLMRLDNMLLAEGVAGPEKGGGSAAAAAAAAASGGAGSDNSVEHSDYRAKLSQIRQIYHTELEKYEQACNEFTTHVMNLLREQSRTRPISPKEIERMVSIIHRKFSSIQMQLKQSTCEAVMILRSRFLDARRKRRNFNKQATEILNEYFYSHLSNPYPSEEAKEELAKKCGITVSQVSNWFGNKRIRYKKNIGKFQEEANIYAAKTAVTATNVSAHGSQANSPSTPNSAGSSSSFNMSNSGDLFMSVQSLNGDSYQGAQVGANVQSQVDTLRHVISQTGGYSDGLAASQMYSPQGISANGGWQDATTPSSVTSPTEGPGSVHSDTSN
Experiment: co-IP; HEK293 cells transfected with PBX1-V5 and/or MEOX1-FLAG, harvested 24 h after transfection; lysis buffer 50 mM Tris pH 8.0, 150 mM NaCl, 1% NP40; lysates incubated with anti-V5 agarose or anti-FLAG M2 affinity gel; Western blot with anti-FLAG or anti-V5 antibody

Q: Which binding does the source give for MEOX1-FLAG (from UniProt P50221 1-254) here?
A: binds
